doi:10.1101/2020.04.27.064162

By UniProt entry, the sequences of proteins in these tests, tags left out.
UniProt Q9NRN9, whole entry: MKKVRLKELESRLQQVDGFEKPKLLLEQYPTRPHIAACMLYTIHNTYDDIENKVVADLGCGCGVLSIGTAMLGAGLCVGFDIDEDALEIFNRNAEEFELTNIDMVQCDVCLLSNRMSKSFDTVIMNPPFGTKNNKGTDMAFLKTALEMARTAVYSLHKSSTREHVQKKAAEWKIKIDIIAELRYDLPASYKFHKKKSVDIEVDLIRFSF

Molecular target: FLAG and HA-tagged METTL5 (METTL5-FLAG-HA) (UniProt Q9NRN9)
Assay: affinity purification with mass spectrometry

B1: TRMT112 (endogenous) (protein, UniProt Q9UI30 1-125)
chain: MKLLTHNLLSSHVRGVGSRGFPLRLQATEVRICPVEFNPNFVARMIPKVEWSAFLEAADNLRLIQVPKGPVEGYEENEEFLRTMHHLLLEVEVIEGTLQCPESGRMFPISRGIPNMLLSEEETES
binding: binds

No constants are given. Whether binding was seen depends on the method and setting. In cells and extracts the contact can be indirect. These calls come from enrichment with a bait or labelling near it, and not all partners need be listed.
